Results are given in words; binding and its absence hold for the method and conditions named. Some binding calls cover weakened binding; strength is not graded here.
Tests used:
mouse TM4SF5 (mouse) [1] = target: mouse TM4SF5 (mouse) (UniProt Q91XF2); experiment: in vivo biodistribution imaging in tumour-bearing BALB/c mice
[2] = target: human TM4SF5 (transmembrane 4 superfamily member 5 protein) (human) (UniProt O14894); experiment: immunohistochemistry of human HCC tissue arrays
mouse TM4SF5 (mouse) [3] = target: mouse TM4SF5 (mouse) (UniProt Q91XF2); experiment: confocal microscopy of frozen HCC tumour sections after i.p. injection of labelled antibody; in vivo imaging
[4] = target: human TM4SF5 (transmembrane 4 superfamily member 5 protein) (human) (UniProt O14894); experiment: immunohistochemistry of human colon cancer tissue arrays
mouse TM4SF5 (mouse) [5] = target: mouse TM4SF5 (mouse) (UniProt Q91XF2); experiment: immunohistochemistry of CT-26 allograft tumour tissue
[6] = target: human TM4SF5 (transmembrane 4 superfamily member 5 protein) (human) (UniProt O14894); experiment: immunohistochemistry of HT-29 xenograft tumour tissue
mouse TM4SF5 (mouse) [7] = target: mouse TM4SF5 (mouse) (UniProt Q91XF2); experiment: immunohistochemistry of BNL-HCC allograft tumour tissue
[8] = target: human TM4SF5 (transmembrane 4 superfamily member 5 protein) (human) (UniProt O14894); experiment: immunohistochemistry of Huh-7 xenograft tumour tissue
mouse TM4SF5 (mouse) [9] = target: mouse TM4SF5 (mouse) (UniProt Q91XF2); experiment: confocal microscopy of frozen BNL-HCC tumour sections taken 72 hr after i.p. injection of DyLight 750-labelled antibody into tumour-bearing BALB/c mice

Chains of the proteins cited; added tags and fusions are not shown.
UniProt O14894: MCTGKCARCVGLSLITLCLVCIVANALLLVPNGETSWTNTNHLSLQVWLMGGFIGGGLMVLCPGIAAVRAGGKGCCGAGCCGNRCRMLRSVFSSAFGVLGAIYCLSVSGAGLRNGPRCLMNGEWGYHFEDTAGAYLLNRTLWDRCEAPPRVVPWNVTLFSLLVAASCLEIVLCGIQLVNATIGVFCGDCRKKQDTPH

Measured: binding

B1: anti-TM4SF5 monoclonal antibody 2D4-18 (antibody, V domains shown)
VH: GDLVKPGGSLKLSCAASGFTFSSYGMSWVRQTPDKRLEWVATISSGGGYTYYPDSVKGRFTISRDNAKNTLYLQMRSLKSEDTAMYYCARHEGFTTYYFDYWGQGTTLTVSS
VL: LSLPVSLGDQASISCRSSQSILHSSGNTYLEWYLQKPGQSPKLLIYKVSNRFSGVPDRFSGSGSGTDFTLKISRVEAEDLGVYYCFQGSHVPFTFGSGTKLEIKR
binds: all assays above

Source: patent US20160002322A1
